Results: PubChem BioAssay AID2685 (National Center for Advancing Translational Sciences (NCATS), 2010)
The other results are listed elsewhere or left out. These are further read-outs of the screen, such as a control signal, another cell line or another target. No call is given for them. The list favours compounds with an active or inconclusive main result. Potencies come from curve fits of mixed quality, noted in brackets.

Experiment: qHTS Assay for Lipid Storage Modulators in Drosophila S3 Cells;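 for cell number change: cells counted by Cell Tracker Red CMTPX staining in the red channel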
Details: BODIPY lipid droplet fluorescence, 18-24 h; for cell number change: measured here: cell count max response, cells fed with added oleic acid
In short: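 Drosophila S3 cells loaded with oleic acid (400 uM, as added) and compounds at several concentrations; lipid droplets imaged by 488-nm laser-scanning cytometry, 500–530 nm intensity and object ratio to cell channel. Percent activity normalized to 20 uM Triacsin C.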

[1] = measured here: lipid fluorescence (Fed channel) AC50, cells fed with added oleic acid
[2] = measured here: cell number channel AC50, cells fed with added oleic acid

SMILES: COc1ccc(/C(C)=N/OCC(=O)N=Nc2c(O)[nH]c3ccccc23)cc1
- cell number change: -15.9%
- AC50 [1]: 4.61 µM [falling, single point]

SMILES: CCCc1cnc(N2CCN(S(=O)(=O)c3cccs3)CC2)nc1
- cell number change: -40.6%
- AC50 [2]: 29.1 µM [falling, single point]
- AC50 [1]: 29.1 µM [falling, single point]

SMILES: O=C(COC(=O)C1CCC(=O)N1)Nc1ccc(Oc2ccccc2)cc1 (configuration not stated)
- cell number change: -18.7%
- AC50 [1]: 0.184 µM [falling, full curve, poor fit]

SMILES: CCOC(=O)C1=C(Nc2ccccc2)CC(C)(O)C(C(=O)OCC)C1c1ccccc1 (configuration not stated)
- cell number change: 5.41%
- AC50 [1]: 2.06 µM [falling, full curve]

SMILES: C[C@H](CO)NC(=O)[C@H](C)[C@@H]1C[C@@]1(C)[C@@H](NC(=O)OCc1ccccc1)c1ccccc1
- cell number change: 13.7%
- AC50 [1]: 13 µM [rising, single point]

SMILES: COc1ccc(S(=O)(=O)N2CCOCC2)cc1NC(=O)COC(=O)c1oc2ccccc2c1C
- cell number change: -22.9%

SMILES: Cc1cccc(-n2c(SCC(N)=O)nc3c(c2=O)C2(CCCCC2)Cc2ccccc2-3)c1
- cell number change: 33.4%
- AC50 [2]: 18.4 µM [rising, single point]
- AC50 [1]: 13 µM [rising, partial curve]

SMILES: O=C(CCC1CCN(Cc2ccccc2Cl)CC1)NC1CC1
- cell number change: 3.85%
- AC50 [1]: 29.1 µM [rising, single point]

SMILES: CCn1c(SCC(=O)Nc2ccccc2N2CCOCC2)nnc1-c1ccccc1
- cell number change: 4.43%
- AC50 [1]: 1.84 µM [rising, partial curve]

SMILES: O=C1NC(C(=O)O)=CC(c2ccc([N+](=O)[O-])cc2)N1 (configuration not stated)
- cell number change: -25.4%
- AC50 [1]: 14.6 µM [falling, partial curve]

SMILES: COc1ccc(OCC(=O)Nc2ccc3c(c2)C(=O)NC3=O)cc1
- cell number change: 14.6%

SMILES: CCN(CC)Cc1oc(-c2ccccc2)cc1C(=O)O
- cell number change: -27.3%
- AC50 [2]: 14.6 µM [falling, partial curve]
- AC50 [1]: 29.1 µM [falling, single point]

SMILES: CN(CC(=O)N1CCN(c2ccccn2)CC1)S(=O)(=O)c1cccc2nsnc12
- cell number change: 32.5%
- AC50 [2]: 0.082 µM [rising, full curve, poor fit]
- AC50 [1]: 13 µM [rising, partial curve]

SMILES: COc1cc(OC)c(-c2sc(Nc3ccccc3)n[n+]2-c2ccc(F)cc2)cc1OC
- cell number change: 30.5%
- AC50 [2]: 29.1 µM [rising, single point]
- AC50 [1]: 6.51 µM [rising, partial curve, poor fit]

SMILES: COc1ccc(CC(=O)N2CCN(S(=O)(=O)c3cccs3)CC2)cc1OC
- cell number change: -34.2%
- AC50 [1]: 29.1 µM [falling, single point]

SMILES: COn1c(-c2ccccc2)c(C=O)c2ccccc21
- cell number change: 15.7%
- AC50 [1]: 10.3 µM [rising, partial curve]

SMILES: O=C(Cn1c(=O)n2ncnc2c2c3c(sc21)CCCC3)c1ccccc1
- AC50 [1]: 0.517 µM [rising, full curve]

SMILES: CC1CCCCC1NC(=O)CCc1nc2sc3c(c2c(=O)[nH]1)CCCC3 (configuration not stated)
- cell number change: 27.5%

SMILES: CC1(C)Cc2cccc(OCC(=O)NCCc3ccccc3)c2O1
- cell number change: -15.2%
- AC50 [1]: 6.51 µM [rising, single point]

SMILES: CC1CCN(CC(O)COC2CC(C)CCC2C(C)C)CC1 (configuration not stated)
- cell number change: -4.78%

SMILES: COC(=O)c1ccc(OCCN2CCCCCC2)cc1
- cell number change: -19.9%
- AC50 [1]: 14.6 µM [falling, partial curve]

SMILES: Cn1c(SCc2ccc(F)cc2)nnc1-c1cccs1
- cell number change: 1.59%
- AC50 [1]: 0.00461 µM [falling, full curve, poor fit]

SMILES: O=C(O)c1cc2nc(C3CC3)cc(C(F)(F)F)n2n1
- cell number change: 54.5%
- AC50 [2]: 6.51 µM [rising, partial curve, poor fit]
- AC50 [1]: 18.4 µM [rising, partial curve]

SMILES: O=C1CCCC(O)=C1C1C2=C(CCCC2=O)Oc2ccccc21 (configuration not stated)
- cell number change: -13.5%
- AC50 [1]: 0.116 µM [falling, full curve, poor fit]

SMILES: O=C(O)CC(C(=O)O)N1C(=O)/C(=C/C=C/c2ccco2)SC1=S (configuration not stated)
- cell number change: -19.1%

SMILES: O=S(=O)(Nc1ccccc1)c1ccc(F)cc1
- cell number change: -56.4%
- AC50 [2]: 29.1 µM [falling, single point]

SMILES: Cc1noc2ncnc(N3CCCCC3)c12
- cell number change: 19.4%
- AC50 [2]: 0.058 µM [rising, partial curve, poor fit]

SMILES: CCCC1(C(=O)OCC)NC(c2ccc(O)cc2)C2C(=O)N(c3ccc4c(c3)OCCO4)C(=O)C21 (configuration not stated)
- AC50 [1]: 20.6 µM [falling, single point]

SMILES: O=C(Nc1nnc(S(=O)(=O)N2CCN(c3ccc(F)cc3)CC2)s1)c1ccccc1
- cell number change: 15.6%
- AC50 [1]: 29.1 µM [rising, single point]

SMILES: COC(=O)c1ccccc1NC(=O)C1CC(c2ccccc2O)=NO1 (configuration not stated)
- cell number change: 5.81%

SMILES: COc1cc(/C=N/Nc2nc(N3CCCCC3)nc(N3CCCCC3)n2)ccc1OC(=O)c1ccco1
- cell number change: 111%
- AC50 [2]: 0.0651 µM [rising, full curve, poor fit]
- AC50 [1]: 9.2 µM [rising, partial curve]

SMILES: COC(=O)c1ccc(S(=O)(=O)N2CCCC2)o1
- cell number change: -25.5%
- AC50 [1]: 29.1 µM [falling, single point]

SMILES: C#CCOCCOCCOCCNc1nc(N2CCN(C(=O)CCCCCCCCCCNC(=O)[C@H](CO)n3cc(CCCSC)nn3)CC2)nc(N2CCN(C(=O)CCCCCCCCCCNC(=O)[C@@H]([C@H](C)O)n3cc(C)nn3)CC2)n1
- cell number change: 12.9%
- AC50 [2]: 6.51 µM [falling, single point]
- AC50 [1]: 4.11 µM [falling, single point]

SMILES: O=C(O)CCc1nn2c3ccccc3n(CCN3CCCCC3)c2nc1=O
- AC50 [2]: 6.51 µM [falling, single point]
- AC50 [1]: 6.51 µM [falling, single point]

SMILES: COc1cccc(N2CCN(C(=O)c3cccnc3)CC2)c1
- cell number change: -34.1%
- AC50 [2]: 3.66 µM [falling, full curve]
- AC50 [1]: 4.61 µM [falling, full curve, poor fit]

SMILES: CCC(CC)C(=O)Nc1ccc(-c2cn3cccnc3n2)cc1
- cell number change: 10.8%

SMILES: CCCOc1ccc(C(=O)CCN2CCN(C(=O)OCC)CC2)cc1
- cell number change: -77.3%
- AC50 [1]: 29.1 µM [falling, single point]

SMILES: C=C1Cn2c(nnc2-c2ccc(Cl)cc2)S1
- cell number change: 17.6%

SMILES: CCOC(=O)c1c(NC(=O)COC(=O)c2ncc(Cl)c(Cl)c2Cl)sc(C(=O)N(C)C)c1C
- cell number change: 200%
- AC50 [2]: 29.1 µM [rising, partial curve]

SMILES: OCCN(Cc1ccccc1)Cc1ccc(Cl)cc1Cl
- cell number change: -28.6%
- AC50 [1]: 23.1 µM [falling, partial curve, poor fit]

SMILES: O=c1[nH]c2ccccc2nc1-c1ccc(Cl)cc1
- cell number change: 14.4%
- AC50 [1]: 5.17 µM [rising, partial curve, poor fit]

SMILES: c1csc(-c2nc3ccccn3c2NC2CCCCC2)c1
- cell number change: 59.7%
- AC50 [2]: 2.59 µM [rising, full curve]
- AC50 [1]: 6.51 µM [rising, partial curve, poor fit]

SMILES: Cc1cc(C)cc(OCC(=O)O/N=C(\N)c2cccnc2)c1
- cell number change: 22.8%
- AC50 [2]: 2.91 µM [rising, full curve, poor fit]
- AC50 [1]: 4.11 µM [rising, full curve, poor fit]

SMILES: O=Cc1ccc(OCc2ccc3ccccc3c2)cc1
- cell number change: -14.2%
- AC50 [1]: 0.651 µM [falling, single point]

SMILES: Cc1cc(NS(=O)(=O)c2ccc(NS(=O)(=O)c3cc(C)c(Cl)cc3Cl)cc2)no1
- cell number change: 3.41%
- AC50 [2]: 1.46 µM [rising, full curve, poor fit]
- AC50 [1]: 2.91 µM [rising, single point]

SMILES: COc1ccc(-c2cc3ccc(OCC(C)=O)cc3oc2=O)cc1OC
- cell number change: 25.1%
- AC50 [1]: 29.1 µM [rising, single point]

SMILES: O=c1c2ccccc2ncn1-c1ccc([N+](=O)[O-])cc1[N+](=O)[O-]
- cell number change: -20.7%
- AC50 [1]: 29.1 µM [falling, single point]

SMILES: Cc1ccc2c(c1)CCCN2C(=O)c1ccc2c(c1)OCO2
- cell number change: 67%
- AC50 [2]: 7.31 µM [rising, partial curve]
- AC50 [1]: 6.51 µM [rising, partial curve]

SMILES: O=C(CNc1ccc2ccccc2c1)N/N=C/c1ccncc1
- AC50 [1]: 0.731 µM [rising, full curve]

SMILES: Cc1nc(-c2cccc(NC(=O)c3ccc(-n4cccn4)cc3)c2)cs1
- cell number change: 11.6%
- AC50 [1]: 25.9 µM [falling, partial curve, poor fit]

SMILES: CC(=O)n1cc(C2C(=O)CC(C)(C)CC2=O)c2ccccc21
- cell number change: 12.8%
- AC50 [1]: 29.1 µM [falling, single point]

SMILES: Cc1ccc(SCC(=O)Nc2ccc(F)cc2[N+](=O)[O-])cc1C
- cell number change: 13.3%
- AC50 [1]: 13 µM [rising, partial curve, poor fit]

SMILES: COc1cc(CNCCc2ccc(S(N)(=O)=O)cc2)ccc1OCc1ccc(Cl)cc1
- cell number change: -12%
- AC50 [1]: 4.61 µM [rising, single point]

SMILES: CC12CCC(C/C1=N\N=C1\NC(=O)/C(=C\c3ccc(Cl)cc3)S1)C2(C)C (configuration not stated)
- cell number change: -46.3%
- AC50 [2]: 16.4 µM [falling, single point]
- AC50 [1]: 16.4 µM [falling, single point]

SMILES: Cc1ccccc1CNC(=O)CN(c1ccccc1Cl)S(C)(=O)=O
- cell number change: -7.77%
- AC50 [1]: 1.03 µM [rising, full curve, poor fit]

SMILES: O=C(Cc1ccc(Cl)cc1)SCc1ccccc1
- cell number change: -1.24%
- AC50 [1]: 0.092 µM [rising, full curve, poor fit]

SMILES: Cc1ccc(S(=O)(=O)N/N=C\c2ccccc2OCc2ccccc2)cc1
- cell number change: 25.3%
- AC50 [1]: 25.9 µM [rising, single point]
